From PMC11210128
These are yes or no findings as the source states them, for the method shown. Binding seen in cells or lysates may run through a third protein. Some entries that bind do so weakly or less than the wild type.

Target: T1, Ubiquitin-specific protease 38 (rat (endogenous in H9c2)) (UniProt D3Z8K5)
T1 sequence: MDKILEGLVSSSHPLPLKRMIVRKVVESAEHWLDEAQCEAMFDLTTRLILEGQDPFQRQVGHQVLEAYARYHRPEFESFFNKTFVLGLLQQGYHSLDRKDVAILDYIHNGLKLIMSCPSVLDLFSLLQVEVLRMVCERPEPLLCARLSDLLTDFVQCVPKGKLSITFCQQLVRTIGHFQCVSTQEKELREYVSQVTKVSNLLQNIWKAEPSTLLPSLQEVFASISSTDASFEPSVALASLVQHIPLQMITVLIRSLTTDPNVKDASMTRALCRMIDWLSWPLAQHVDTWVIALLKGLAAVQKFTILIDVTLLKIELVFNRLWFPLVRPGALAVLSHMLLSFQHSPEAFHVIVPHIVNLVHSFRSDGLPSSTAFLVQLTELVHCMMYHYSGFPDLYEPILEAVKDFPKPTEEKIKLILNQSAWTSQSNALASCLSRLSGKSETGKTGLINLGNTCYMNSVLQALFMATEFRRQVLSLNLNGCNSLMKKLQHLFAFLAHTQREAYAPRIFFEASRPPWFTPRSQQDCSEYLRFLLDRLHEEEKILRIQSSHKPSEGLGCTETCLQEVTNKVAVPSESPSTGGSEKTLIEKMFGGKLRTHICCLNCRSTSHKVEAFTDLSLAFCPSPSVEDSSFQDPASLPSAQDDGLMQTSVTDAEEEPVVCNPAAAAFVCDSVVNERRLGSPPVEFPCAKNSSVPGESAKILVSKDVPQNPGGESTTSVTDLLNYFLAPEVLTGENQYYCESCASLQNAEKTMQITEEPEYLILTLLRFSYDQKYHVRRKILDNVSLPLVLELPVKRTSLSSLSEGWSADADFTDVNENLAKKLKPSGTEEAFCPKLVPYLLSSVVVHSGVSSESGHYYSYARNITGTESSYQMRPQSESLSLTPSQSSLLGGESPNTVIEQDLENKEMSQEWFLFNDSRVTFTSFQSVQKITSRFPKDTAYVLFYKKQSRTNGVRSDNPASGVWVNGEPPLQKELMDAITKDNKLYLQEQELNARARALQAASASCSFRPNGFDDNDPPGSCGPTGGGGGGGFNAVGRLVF
Test: co-IP; endogenous proteins in H9c2 cell lysate (IP lysis buffer with PMSF and a cocktail); anti-USP38, anti-TBK1 or anti-IgG overnight, magnetic beads 1 h at room temperature, Western blotting; repeated three times

- binding: binds
B1: TBK1 (protein, UniProt D4A7D3 1-729)
chain: MQSTSNHLWLLSDILGQGATANVFRGRHKKTGDLYAVKVFNNISFLRPVDVQMREFEVLKKLNHKNIVKLFAIEEETTTRHKVLIMEFCPCGSLYTVLEEPSNAYGLPESEFLIVLRDVVGGMNHLRENGIVHRDIKPGNIMRVIGEDGQSVYKLTDFGAARELEDDEQFVSLYGTEEYLHPDMYERAVLRKDHQKKYGATVDLWSVGVTFYHAATGSLPFRPFEGPRRNKEVMYKIITGKPSGAISGVQKAENGPIDWSGDMPLSCSLSQGLQALLTPVLANILEADQEKCWGFDQFFAETSDVLHRMVIHVFSLQHMTALKIYIHSYNTAAVFHELVYKQTKIISSNQELIYEGRRLVLELGRLAQHFPKTTEENPIFVTSREQLNSIGLRYEKISLPKIHPRYDLDGDASMAKAVTGVVCYACRTAGTLLLYQELMRKGVRWLIELVKDDYNETVHKKTEVVITLDFCIRNIEKTVKVYEKLMKVSLDAAELGEISDIHTKLLRLSSSQGTIESSLQDINSRLSPGGSLADTWAHQEGTHPRDRNVEKLQVLLNCITEIYYQFKKDKAERRLAYNEEQIHKFDKQKLYYHATKAMTHFTDECVRKYEAFKDTSEEWMRKMLHLRKQLLSLTNQCFDIEEEVSKYQDYTNELQETLPQKMLAASSGIKHTVAPIYPSSNTLVEMTLGMKKLKEEMEGVVKELAENNHILERFGSLTMDGGLRNVDCL
